Test results published in PubChem BioAssay AID540275 (National Center for Advancing Translational Sciences (NCATS), 2011).
Among all 320,000 compounds or so, about 620 (0.19%) were called active. Inconclusive results, whose numbers are uncertain, are shown with a selection of clear calls. No stated cut-off is given here; in the data, active means activation above about 80%; inconclusive means between about 30% and that limit; inactive means weaker than that.

Chains of the proteins cited; added tags and fusions are not shown.
UniProt Q8NER1, whole entry, looked up: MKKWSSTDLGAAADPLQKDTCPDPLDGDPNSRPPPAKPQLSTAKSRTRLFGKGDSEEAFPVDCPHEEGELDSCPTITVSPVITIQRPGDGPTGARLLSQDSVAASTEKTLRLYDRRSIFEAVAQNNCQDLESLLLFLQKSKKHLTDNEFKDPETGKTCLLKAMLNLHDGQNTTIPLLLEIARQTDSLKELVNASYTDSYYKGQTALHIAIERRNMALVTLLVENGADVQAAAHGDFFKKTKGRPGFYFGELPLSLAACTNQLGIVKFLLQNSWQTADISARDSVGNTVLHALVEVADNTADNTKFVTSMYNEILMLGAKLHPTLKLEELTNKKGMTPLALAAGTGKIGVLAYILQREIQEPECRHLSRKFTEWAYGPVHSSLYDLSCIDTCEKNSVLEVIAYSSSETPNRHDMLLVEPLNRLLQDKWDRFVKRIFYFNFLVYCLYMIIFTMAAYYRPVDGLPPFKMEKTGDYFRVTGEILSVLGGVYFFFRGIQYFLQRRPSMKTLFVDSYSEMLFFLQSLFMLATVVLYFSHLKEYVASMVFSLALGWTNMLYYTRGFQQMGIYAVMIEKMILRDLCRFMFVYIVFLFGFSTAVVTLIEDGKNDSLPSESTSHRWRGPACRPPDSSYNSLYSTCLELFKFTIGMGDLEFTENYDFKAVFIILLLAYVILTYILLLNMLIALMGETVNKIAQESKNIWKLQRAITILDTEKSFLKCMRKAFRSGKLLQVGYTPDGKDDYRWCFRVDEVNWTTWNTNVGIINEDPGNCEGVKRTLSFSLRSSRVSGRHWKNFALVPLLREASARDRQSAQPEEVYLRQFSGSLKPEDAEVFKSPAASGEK

Biological target: Transient receptor potential cation channel subfamily V member 1 (Homo sapiens) (UniProt Q8NER1)
Assay: HTS Assay for Compounds that Act as Agonists of the Vanilloid Receptor 1; further: 0% is about no effect
Details: TRPV1-expressing cells, Fluo-8 calcium influx, agonist mode; at 8.33 µM, stronger effect = higher value
Outline: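 Cells expressing TRPV1 were dye-loaded with Fluo-8 and read kinetically: 10 s baseline, 3 min after compound (agonist portion), then 2 min after EC20 capsaicin (allosteric enhancer portion). Calcium-bound dye fluorescence at 480/520 nm.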

Structure (SMILES)	activation
C/C=C\C(=O)Nc1cccc(C2=NOC3(C2)C[C@@H](C(N)=O)N(C(=O)CCCCC)C3)c1 (stereo partly drawn)	inactive: 1.96%
COC(=O)c1cn(NC(=O)Cc2cccc(OC)c2)c(=O)c2ccccc12	inconclusive: 53.3%
O=C(NC1CCCCC1)C(c1ccccc1)N(C(=O)c1cccs1)c1ccc2c(c1)OCO2 (stereo not drawn)	inconclusive: 60.3%
O=C(Nc1ccc(F)cc1)c1cc(-c2ccccn2)nc2c(Cl)cccc12	inconclusive: 40.4%
CCc1cc2c(=O)c(-c3ccc4c(c3)OCO4)coc2c(CN(C)C)c1O	inactive: 1.93%
C=CCn1c(SCC(=O)c2ccc(CNC(C)=O)o2)nc2scc(C3CC3)c2c1=O	inconclusive: 37.8%
O=C(Nc1nnc(-c2ccncc2)s1)C1CCCO1 (stereo not drawn)	inactive: 1.38%
O=C(COC(=O)Cc1ccc(Cl)c(Cl)c1)NCc1ccco1	inconclusive: 62.4%
COc1ccc(C(=O)Nc2sc(C)c(C)c2CN2CC(C)OC(C)C2)cc1 (stereo not drawn)	inconclusive: 41.7%
O=S(=O)(c1ccccc1)N1CCN=C1SCc1ccccc1	inconclusive: 31.9%
O=C(Nc1cccn(Cc2ccccc2Cl)c1=O)NC1CCCCC1	inconclusive: 31.7%
CC(Cl)C(=O)Nc1cc(C(F)(F)F)ccc1N1CCOCC1 (stereo not drawn)	inconclusive: 37.7%
O=C(CCSc1ccc(Cl)cc1)NC1CCCC1	inconclusive: 51%
O=C1CN(C(=O)c2ccccc2F)C(c2ccccc2)c2cc(Cl)ccc2N1 (stereo not drawn)	inconclusive: 35.3%
CN1CCN(c2ccccc2NC(=O)c2ccc([N+](=O)[O-])cc2Cl)CC1	inactive: -5.29%
C/C(N)=C(/C#N)C(=O)CSc1nc2ccccc2c(=O)n1Cc1ccc(F)cc1	inconclusive: 42.4%
CC(=O)c1ccc(NC(=O)C2CCCN(c3ncnc4c3nc3n4CCCCC3)C2)cc1 (stereo not drawn)	inconclusive: 42.7%
CC(=O)Nc1ccc(SC[C@H](Cc2ccccc2)N2CCN(CCc3ccccc3)CCC2=O)cc1	inconclusive: 37%
O=C(Nc1cccc(F)c1)C1CCN(C(=O)NCc2ccccc2)CC1	inconclusive: 74.9%
O=C1C=C(c2ccccc2)CC(/C=C/c2ccccc2)C1 (stereo not drawn)	inconclusive: 53.2%
CCOc1ccc(NC(=O)CCCCCN2C(=O)[C@@H]3Cc4ccccc4CN3C2=O)cc1	inconclusive: 34%
COC(=O)C1=C(N)Oc2cc(C)n(Cc3ccco3)c(=O)c2C1c1cccc(Cl)c1 (stereo not drawn)	inconclusive: 33.2%

Structure (SMILES)	activation
O=C(Cn1cnc([N+](=O)[O-])n1)NCc1ccccc1	inactive: -7.83%
C=CCNC(=S)N(C1CCCCC1)C1CCCCC1	inactive: 1.35%
C/C(=N\NC(=O)c1ccc(Cl)cc1)c1cccs1	inactive: 11.8%
CC(=O)N1CN(C2CCCC2)Cc2c1sc1c2CCCC1	inconclusive: 37.1%
Cc1ccc(C(=O)N[C@H](C(=O)N2CCN(c3ccccc3F)CC2)C(C)C)cc1	inconclusive: 30.3%
O=C(Nc1ccccc1C(=O)Nc1ccccn1)c1ccc([N+](=O)[O-])cc1	inactive: 8.18%
CCN(CC)S(=O)(=O)c1ccc(NC2c3ccccc3C(=O)N2Cc2ccc3c(c2)OCO3)cc1 (stereo not drawn)	inconclusive: 53.8%
O=C(Nc1ccccc1)c1ccc(-c2ccc(Br)cc2)o1	inconclusive: 34.4%
Cc1cc(C)c(S(=O)(=O)Nc2cc(SCC(=O)O)c(O)c3ccccc23)cc1C	inactive: -0.826%
CCOc1cc(C(=O)NC2=NCCS2)cc(OCC)c1OCC	inconclusive: 48.9%
O=C(c1cnn2c(C(F)F)cc(-c3ccccc3)nc12)N1CCc2ccccc2C1	inactive: -4.24%
CC(C)c1cc(C(=O)Nc2ccc3c(c2)OCO3)no1	inconclusive: 52.4%
CC(C)(Oc1ccc(Cl)cc1)C(=O)NCC(c1cccs1)N1CCOCC1 (stereo not drawn)	inconclusive: 35.4%
Cc1ccc(OCCNC(=O)c2ccccc2F)cc1	inconclusive: 40.3%
CCc1ccc(N(C(=O)c2ccoc2C)C(C(=O)NC2CCCC2)c2ccc(OC)cc2)cc1 (stereo not drawn)	inconclusive: 32.3%
O=C(/C=C\Nc1cccc(F)c1)c1ccc2c(c1)OCO2	inconclusive: 34.4%
COc1ccc(/C=C/c2ccccc2)cc1[C@H]1[C@H]2C=CC[C@@H](C)[C@@H]2C(=O)N1Cc1ccccc1	inconclusive: 35.5%
S=C(NCCc1c[nH]c2ccccc12)NC1CCCCC1	inconclusive: 49.7%
NNc1nc(-c2ccccc2)cc(-c2ccccc2)n1	inactive: 12.6%
CCn1ccc(C(=O)Nc2ncc(C)s2)n1	inactive: 14.6%
CCn1nc(C)c(NC(=O)CC23CC4CC(CC(C4)C2)C3)c1C	inconclusive: 36.8%
Cc1ccc(-n2c(C)cc(/C=C3\SC(=O)NC3=O)c2C)cc1	inactive: 24.5%

Structure (SMILES)	activation
Cc1ccc(C(=O)NCCc2cccc(Cl)c2)cc1[N+](=O)[O-]	inconclusive: 51.3%
COc1ccc(C(=O)Nc2ccccc2N2CCN(C(=O)C(C)C)CC2)cc1Cl	inconclusive: 36.9%
Cc1ccc2c(COC(=O)c3ccccc3OC(F)F)cc(=O)oc2c1	inconclusive: 57.6%
COc1ccc(N2CCN(C(=O)CN3CCN(c4nc(-c5ccc(F)cc5)cs4)CC3)CC2)cc1	inactive: 3.83%
CCc1cc2c(=O)c(-c3nc4ccccc4n3C)c(C)oc2c(CN(CC)CC)c1O	inactive: 1.25%
N#Cc1ccc(OCC(O)CN2CCN(CC(O)COc3ccc(C#N)cc3)CC2)cc1 (stereo not drawn)	inactive: -1.29%
O=C1C=C(c2cc(Cl)cc(Cl)c2)C[C@@H](c2ccc(F)cc2)C1	inconclusive: 44.7%
Cc1ccsc1/C=N\NC(=O)c1ccc2c(c1)OCO2	inconclusive: 41.5%
CN(C)/C=C/c1oc2ccc(O)cc2c1[N+](=O)[O-]	inactive: -2.02%
CCSc1ccc(-c2nn(-c3ccccc3)cc2/C=C(/C#N)C(=O)NCCCOC)cc1	inconclusive: 53.9%
CC(CCc1ccccc1)NC(=O)CC(C)c1ccccc1 (stereo not drawn)	inconclusive: 31.4%
COC(=O)[C@]1(C)CCC[C@@]2(C)C3CC[C@@]4(C)C[C@]3(CCC21)CC(=O)N4Cc1ccc(OC)cc1 (stereo partly drawn)	inconclusive: 32.6%
Cc1cc(S(=O)(=O)N(Cc2ccccc2F)C2CC2)ccc1-n1cnnn1	inconclusive: 52.2%
CCOc1ccc(NC(=O)c2ccc3c(c2)CCN3S(C)(=O)=O)cc1	inconclusive: 56.4%
Cc1ccc(C(=O)CCNc2ccc(F)c(Cl)c2)o1	inconclusive: 44%
CCC(=O)N(CC)c1nc(-c2cc(OC)ccc2OC)cs1	inactive: 1.07%
COc1ccc(CN2CC(=O)N3[C@H]4c5ccccc5OC[C@@H]4[C@H](c4ccccc4)[C@]3(C)C2=O)cc1	inconclusive: 61%
O=C(CCc1ccc(O)c(O)c1)NNC(=S)Nc1ccc(Br)cc1Cl	inconclusive: 32.2%
O=C(c1cc2cc(Cl)cc(Cl)c2oc1=O)N1CCOCC1	inconclusive: 56.1%
Cc1ncoc1C(=O)NCCC(c1ccccc1)c1ccccc1	active: 98.7%
Cc1ccc(C(=O)Nc2ncc(Cc3ccc(SC(F)F)cc3)s2)cc1	inconclusive: 58.5%
Cc1cc(C)nc(-n2nc(C)cc2NC(=O)CN2CCc3ccccc3C2)n1	inconclusive: 37.9%

Individual results from the list:
Value for O=C(CCc1ccc(O)c(O)c1)NNC(=S)Nc1ccc(Br)cc1Cl under activation: inconclusive: 32.2%
Value for O=C(Nc1cccn(Cc2ccccc2Cl)c1=O)NC1CCCCC1 under activation: inconclusive: 31.7%
Value for CC(CCc1ccccc1)NC(=O)CC(C)c1ccccc1 (stereo not drawn) under activation: inconclusive: 31.4%
Value for O=C(Nc1ccccc1)c1ccc(-c2ccc(Br)cc2)o1 under activation: inconclusive: 34.4%
Value for C/C(N)=C(/C#N)C(=O)CSc1nc2ccccc2c(=O)n1Cc1ccc(F)cc1 under activation: inconclusive: 42.4%
Value for Cc1ccc(-n2c(C)cc(/C=C3\SC(=O)NC3=O)c2C)cc1 under activation: inactive: 24.5%
Value for O=C1C=C(c2cc(Cl)cc(Cl)c2)C[C@@H](c2ccc(F)cc2)C1 under activation: inconclusive: 44.7%

Further records follow:

Structure (SMILES)	activation
Cc1ccc2nc(/C(C#N)=C/c3ccc(O)c(O)c3)[nH]c2c1	inconclusive: 79.1%
CC(C)(Oc1ccc(Cl)cc1)C(=O)Nc1ccc2oc(=O)ccc2c1	inconclusive: 67.1%
CCN(CC)c1nc(SCCOC(=O)Nc2ccccc2)nc(N(CC)CC)n1	inconclusive: 56.2%
O=C(NCc1ccccn1)Nc1ccc(Br)cc1	inconclusive: 36.5%
COc1cccc(C2CC(c3cccc(NS(C)(=O)=O)c3)=NN2C(=O)c2ccccc2)c1OC (stereo not drawn)	inactive: 1.66%
CCN(CC)c1ccc2oc(=O)c(C)nc2c1	inconclusive: 34.9%
O=C(Nc1ccc(F)cc1F)N1CCC(c2nc3ccccc3o2)CC1	inconclusive: 38.6%
CCCC1C(=O)N(c2ccccc2)C1c1ccccc1 (stereo not drawn)	inconclusive: 33.5%
CC(=O)Nc1ccc(N)cc1	inactive: 0.964%
C=C(C)COc1ccc(-c2ncncc2-c2ccc(Cl)cc2)c(O)c1	inconclusive: 36.7%
c1ccc(CN(Cc2ccccc2)c2c3c(nc4ncnn24)CCC3)cc1	inactive: 6.77%
CCOC(=O)C1(CCCc2ccccc2)CCN(C(=O)C2CCCO2)CC1 (stereo not drawn)	inconclusive: 32%
CC(=O)c1cc(C)ccc1OC(=O)CCN1C(=O)C2C3c4ccccc4C(c4ccccc43)C2C1=O (stereo not drawn)	inactive: -1.8%
CC(=O)C1=C(c2ccccc2)NC(=O)NC1c1ccccc1OCC(=O)Nc1ccccc1 (stereo not drawn)	inconclusive: 41.2%
Cn1nc(C(=O)Nc2nc3ccccc3[nH]2)c2ccccc2c1=O	inactive: -1.68%
COC(=O)c1ccc(COc2ccccc2[N+](=O)[O-])o1	inconclusive: 40.1%
CC(C)CNC(=S)N(CCN(C)C)Cc1cc2cc3c(cc2[nH]c1=O)OCCO3	inconclusive: 47.3%
Cc1ccc(NC(=O)c2ccc(-c3nn(C)c(=O)c4ccccc34)cc2)cc1	inactive: 4.06%
Cc1ccc(-c2nn(-c3ccccc3)cc2/C=C/C(=O)Nc2cccc(S(N)(=O)=O)c2)cc1	inconclusive: 43.7%
NS(=O)(=O)c1ccc(CCNC(=O)CNC(=O)c2ccccc2F)cc1	inactive: -5.23%
N#CCC(=O)N/N=C/c1ccc(Sc2nc3ccccc3s2)o1	inactive: -1.1%
O=C(CN(c1ccc(Br)cc1)S(=O)(=O)c1ccc(Cl)c([N+](=O)[O-])c1)NCCc1ccccc1	inactive: -2.96%
